Experimental data as given in PMC4652755.
Results are given in words; binding and its absence hold for the method and conditions named. Some results given as binding are weak or reduced against the parent protein; the word gives no strength.

Target: T1, REV1, yeast two-hybrid construct (UniProt Q9UBZ9)
T1 sequence: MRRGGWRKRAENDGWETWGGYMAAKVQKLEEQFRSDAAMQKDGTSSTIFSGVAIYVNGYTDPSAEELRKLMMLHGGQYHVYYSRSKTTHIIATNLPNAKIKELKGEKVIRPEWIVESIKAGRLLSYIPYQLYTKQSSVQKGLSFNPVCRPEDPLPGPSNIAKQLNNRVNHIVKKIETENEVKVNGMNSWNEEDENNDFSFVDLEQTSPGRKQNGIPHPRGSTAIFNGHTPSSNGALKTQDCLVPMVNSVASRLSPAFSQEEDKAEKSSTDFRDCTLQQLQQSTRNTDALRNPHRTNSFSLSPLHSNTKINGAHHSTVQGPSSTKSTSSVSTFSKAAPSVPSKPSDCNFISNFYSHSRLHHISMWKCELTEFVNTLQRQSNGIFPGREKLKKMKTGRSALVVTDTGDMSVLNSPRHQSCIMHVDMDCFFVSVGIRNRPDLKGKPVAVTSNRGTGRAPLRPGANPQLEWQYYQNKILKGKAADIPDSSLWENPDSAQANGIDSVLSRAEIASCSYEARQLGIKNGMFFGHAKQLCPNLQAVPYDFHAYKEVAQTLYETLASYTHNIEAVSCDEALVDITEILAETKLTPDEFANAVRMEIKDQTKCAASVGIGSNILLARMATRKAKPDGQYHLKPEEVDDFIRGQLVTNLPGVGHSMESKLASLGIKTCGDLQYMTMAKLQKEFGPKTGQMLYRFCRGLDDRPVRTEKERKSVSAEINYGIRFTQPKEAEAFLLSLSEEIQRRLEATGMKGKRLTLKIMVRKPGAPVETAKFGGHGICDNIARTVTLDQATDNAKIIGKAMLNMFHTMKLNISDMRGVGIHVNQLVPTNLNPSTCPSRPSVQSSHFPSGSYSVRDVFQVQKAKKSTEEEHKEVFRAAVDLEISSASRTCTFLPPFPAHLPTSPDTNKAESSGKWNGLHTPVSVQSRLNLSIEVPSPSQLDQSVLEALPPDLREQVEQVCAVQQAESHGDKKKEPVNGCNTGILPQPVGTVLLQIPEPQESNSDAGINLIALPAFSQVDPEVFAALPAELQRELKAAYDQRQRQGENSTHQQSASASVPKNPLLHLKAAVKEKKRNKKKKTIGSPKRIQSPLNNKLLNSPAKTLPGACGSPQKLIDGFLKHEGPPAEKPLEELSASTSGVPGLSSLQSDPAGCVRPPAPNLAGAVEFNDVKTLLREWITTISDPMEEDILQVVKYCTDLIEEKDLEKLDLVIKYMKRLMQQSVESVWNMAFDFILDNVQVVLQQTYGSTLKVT
Assay: two-hybrid; yeast two-hybrid assays (Supplementary Figures S1 and S5); bait and prey not given

binding: binds
B1: DNA polymerase η (Polη), yeast two-hybrid construct (enzyme, UniProt Q9Y253 1-713)
chain: MATGQDRVVALVDMDCFFVQVEQRQNPHLRNKPCAVVQYKSWKGGGIIAVSYEARAFGVTRSMWADDAKKLCPDLLLAQVRESRGKANLTKYREASVEVMEIMSRFAVIERASIDEAYVDLTSAVQERLQKLQGQPISADLLPSTYIEGLPQGPTTAEETVQKEGMRKQGLFQWLDSLQIDNLTSPDLQLTVGAVIVEEMRAAIERETGFQCSAGISHNKVLAKLACGLNKPNRQTLVSHGSVPQLFSQMPIRKIRSLGGKLGASVIEILGIEYMGELTQFTESQLQSHFGEKNGSWLYAMCRGIEHDPVKPRQLPKTIGCSKNFPGKTALATREQVQWWLLQLAQELEERLTKDRNDNDRVATQLVVSIRVQGDKRLSSLRRCCALTRYDAHKMSHDAFTVIKNCNTSGIQTEWSPPLTMLFLCATKFSASAPSSSTDITSFLSSDPSSLPKVPVTSSEAKTQGSGPAVTATKKATTSLESFFQKAAERQKVKEASLSSLTAPTQAPMSNSPSKPSLPFQTSQSTGTEPFFKQKSLLLKQKQLNNSSVSSPQQNPWSNCKALPNSLPTEYPGCVPVCEGVSKLEESSKATPAEMDLAHNSQSMHASSASKSVLEVTQKATPNPSLLAAEDQVPCEKCGSLVPVWDMPEHMDYHFALELQKSFLQPHSSNPQVVSAVSHQGKRNPKSPLACTNKRPRPEGMQTLESFFKPLTH
